The source of these data is doi:10.1101/553297.

Chains of the proteins cited; added tags and fusions are not shown. Lines headed by an entry give the natural chain unless they say otherwise; changes in a name come on top. Residues count along the entry.
UniProt P0C0S6: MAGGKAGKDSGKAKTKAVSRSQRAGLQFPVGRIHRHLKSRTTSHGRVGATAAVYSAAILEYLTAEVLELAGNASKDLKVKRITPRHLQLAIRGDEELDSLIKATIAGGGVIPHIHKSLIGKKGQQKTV
UniProt Q8K2B3, residues 43-664: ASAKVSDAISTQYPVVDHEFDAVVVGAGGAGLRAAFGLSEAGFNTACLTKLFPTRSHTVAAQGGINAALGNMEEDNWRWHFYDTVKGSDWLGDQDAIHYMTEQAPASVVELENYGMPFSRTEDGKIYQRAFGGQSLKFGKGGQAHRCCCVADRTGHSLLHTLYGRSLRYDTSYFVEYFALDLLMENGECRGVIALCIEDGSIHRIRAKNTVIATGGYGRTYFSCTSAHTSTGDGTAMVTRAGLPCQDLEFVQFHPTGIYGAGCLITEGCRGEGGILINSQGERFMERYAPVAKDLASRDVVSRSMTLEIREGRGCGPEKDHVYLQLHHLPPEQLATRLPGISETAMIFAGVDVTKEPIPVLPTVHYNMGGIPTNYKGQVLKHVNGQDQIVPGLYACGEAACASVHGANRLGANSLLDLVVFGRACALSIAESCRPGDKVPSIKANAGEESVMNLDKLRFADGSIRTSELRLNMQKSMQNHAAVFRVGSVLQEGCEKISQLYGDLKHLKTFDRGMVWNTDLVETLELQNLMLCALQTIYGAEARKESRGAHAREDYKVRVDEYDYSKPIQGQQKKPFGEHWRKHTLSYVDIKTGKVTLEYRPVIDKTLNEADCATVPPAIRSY
UniProt Q8BMS1, residues 37-763: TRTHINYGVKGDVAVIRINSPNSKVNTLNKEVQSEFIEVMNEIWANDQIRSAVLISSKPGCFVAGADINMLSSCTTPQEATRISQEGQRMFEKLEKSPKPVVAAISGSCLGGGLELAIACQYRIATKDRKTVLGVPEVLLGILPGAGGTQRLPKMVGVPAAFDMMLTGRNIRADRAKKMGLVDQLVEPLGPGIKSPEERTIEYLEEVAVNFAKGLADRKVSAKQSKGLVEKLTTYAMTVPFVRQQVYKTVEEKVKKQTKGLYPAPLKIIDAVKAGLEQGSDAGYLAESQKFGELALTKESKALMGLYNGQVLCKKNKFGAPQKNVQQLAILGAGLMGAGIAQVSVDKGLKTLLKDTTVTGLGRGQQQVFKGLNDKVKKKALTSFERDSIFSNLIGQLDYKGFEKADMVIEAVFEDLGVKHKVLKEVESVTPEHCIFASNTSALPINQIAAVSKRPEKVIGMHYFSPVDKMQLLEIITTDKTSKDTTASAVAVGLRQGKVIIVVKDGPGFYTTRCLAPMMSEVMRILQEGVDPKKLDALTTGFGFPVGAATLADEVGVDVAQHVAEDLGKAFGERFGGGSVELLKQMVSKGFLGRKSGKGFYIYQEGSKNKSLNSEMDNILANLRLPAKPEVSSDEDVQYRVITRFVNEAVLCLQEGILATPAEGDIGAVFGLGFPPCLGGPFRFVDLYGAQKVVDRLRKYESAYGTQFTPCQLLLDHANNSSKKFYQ

B1: pyruvate dehydrogenase A1 (enzyme, UniProt P35486 30-390)
chain: FANDATFEIKKCDLHRLEEGPPVTTVLTREDGLKYYRMMQTVRRMELKADQLYKQKIIRGFCHLCDGQEACCVGLEAGINPTDHLITAYRAHGFTFTRGLPVRAILAELTGRRGGCAKGKGGSMHMYAKNFYGGNGIVGAQVPLGAGIALACKYNGKDEVCLTLYGDGAANQGQIFEAYNMAALWKLPCIFICENNRYGMGTSVERAAASTDYYKRGDFIPGLRVDGMDILCVREATKFAAAYCRSGKGPILMELQTYRYHGHSMSDPGVSYRTREEIQEVRSKSDPIMLLKDRMVNSNLASVEELKEIDVEVRKEIEDAAQFATADPEPPLEELGYHIYSSDPPFEVRGANQWIKFKSVS
B2: enoyl-CoA delta isomerase 1 (enzyme, UniProt P42125 29-289)
chain: FANKRVLVETEGPAGVAVMKLRNPPVNSLSLECLTEFTISLEKLENDKSIRGVILTSECPGIFSAGLDLLEMYGRNPAHYAEYWKNVQELWLRLYTSNMILVSAINGASPAGGCLLALCCDYRVMADNPKYTIGLNESLLGIVAPFWFKDMYVNTIGHREAERALQLGTLFSPAEALKVGVVDEVVPEDQVHSKARSVMTKWLAIPDHSRQLTKNMMRKATADNLIKQREADIQNFTSFISKDSIQKSLHMYLEKLKQKKG
B3: succinate dehydrogenase complex, subunit b (enzyme, UniProt Q9CQA3 31-282)
chain: AQTAAAAAPRIKKFAIYRWDPDKTGDKPRMQTYEVDLNKCGPMVLDALIKIKNEVDSTLTFRRSCREGICGSCAMNINGGNTLACTRRIDTDLSKVSKIYPLPHMYVIKDLVPDLSNFYAQYKSIEPYLKKKDESQEGKQQYLQSIEDREKLDGLYECILCACCSTSCPSYWWNGDKYLGPAVLMQAYRWMIDSRDDFTEERLAKLQDPFSVYRCHTIMNCTQTCPKGLNPGKAIAEIKKMMATYKEKRALA
B4: isocitrate dehydrogenase 2 (enzyme, UniProt P54071 40-452)
chain: AEKRIKVEKPVVEMDGDEMTRIIWQFIKEKLILPHVDVQLKYFDLGLPNRDQTNDQVTIDSALATQKYSVAVKCATITPDEARVEEFKLKKMWKSPNGTIRNILGGTVFREPIICKNIPRLVPGWTKPITIGRHAHGDQYKATDFVVDRAGTFKLVFTPKDGSSAKEWEVYNFPAGGVGMGMYNTDESISGFAHSCFQYSIQKKWPLYLSTKNTILKAYDGRFKDIFQEIFDKHYKTDFDKNKIWYEHRLIDDMVAQVLKSSGGFVWACKNYDGDVQSDILAQGFGSLGLMTSVLVCPDGKTIEAEAAHGTVTRHYREHQKGRPTSTNPIASIFAWTRGLEHRGKLDGNQDLIRFAQTLEKVCVQTVESGAMTKDLAGCIHGLSNVKLNEHFLNTTDFLDTIKSNLDRALGKQ
B5: acetyl-CoA acyltransferase 2 (enzyme, UniProt Q8BWT1 1-397)
chain: MALLRGVFIVAAKRTPFGAYGGLLKDFSATDLTEFAARAALSAGKVPPETIDSVIVGNVMQSSSDAAYLARHVGLRVGVPTETGALTLNRLCGSGFQSIVSGCQEICSKDAEVVLCGGTESMSQSPYCVRNVRFGTKFGLDLKLEDTLWAGLTDQHVKLPMGMTAENLAAKYNISREDCDRYALQSQQRWKAANEAGYFNEEMAPIEVKTKKGKQTMQVDEHARPQTTLEQLQKLPSVFKKDGTVTAGNASGVSDGAGAVIIASEDAVKKHNFTPLARVVGYFVSGCDPTIMGIGPVPAINGALKKAGLSLKDMDLIDVNEAFAPQFLSVQKALDLDPSKTNVSGGAIALGHPLGGSGSRITAHLVHELRRRGGKYAVGSACIGGGQGIALIIQNTA
B6: oxoglutarate dehydrogenase (enzyme, UniProt Q60597 41-1023)
chain: SAPVAAEPFLSGTSSNYVEEMYCAWLENPKSVHKSWDIFFRNTNAGAPPGTAYQSPLSLSRSSLATMAHAQSLVEAQPNVDKLVEDHLAVQSLIRAYQIRGHHVAQLDPLGILDADLDSSVPADIISSTDKLGFYGLHESDLDKVFHLPTTTFIGGQEPALPLREIIRRLEMAYCQHIGVEFMFINDLEQCQWIRQKFETPGIMQFTNEEKRTLLARLVRSTRFEEFLQRKWSSEKRFGLEGCEVLIPALKTIIDMSSANGVDYVIMGMPHRGRLNVLANVIRKELEQIFCQFDSKLEAADEGSGDMKYHLGMYHRRINRVTDRNITLSLVANPSHLEAADPVVMGKTKAEQFYCGDTEGKKVMSILLHGDAAFAGQGIVYETFHLSDLPSYTTHGTVHVVVNNQIGFTTDPRMARSSPYPTDVARVVNAPIFHVNSDDPEAVMYVCKVAAEWRNTFHKDVVVDLVCYRRNGHNEMDEPMFTQPLMYKQIRKQKPVLQKYAELLVSQGVVNQPEYEEEISKYDKICEEAFTRSKDEKILHIKHWLDSPWPGFFTLDGQPRSMTCPSTGLEEDVLFHIGKVASSVPVENFTIHGGLSRILKTRRELVTNRTVDWALAEYMAFGSLLKEGIHVRLSGQDVERGTFSHRHHVLHDQNVDKRTCIPMNHLWPNQAPYTVCNSSLSEYGVLGFELGFAMASPNALVLWEAQFGDFNNMAQCIIDQFICPGQAKWVRQNGIVLLLPHGMEGMGPEHSSARPERFLQMCNDDPDVLPDLQEENFDINQLYDCNWIVVNCSTPGNFFHVLRRQILLPFRKPLIVFTPKSLLRHPEARTSFDEMLPGTHFQRVIPENGPAAQDPHKVKRLLFCTGKVYYDLTRERKARNMEEEVAITRIEQLSPFPFDLLLKEAQKYPNAELAWCQEEHKNQGYYDYVKPRLRTTIDRAKPVWYAGRDPAAAPATGNKKTHLTELQRFLDTAFDLDAFKKFS

These are yes or no findings as the source states them, for the method shown. Binding seen in cells or lysates may run through a third protein. Here binding means that the protein was enriched with, or labelled near, the bait; the list need not be complete.

The first assay concerns the target histone variant H2A.Z (mouse (endogenous in mouse heart)) (UniProt P0C0S6). The assay can be described thus: affinity purification with mass spectrometry.
Consider B1, for which the binding result is “binds”.

As for B2, the binding entry is “binds”. With B3, the binding result is on record as “binds”. On the same count and under the same terms, as for B4, the entry is “binds”.

Consider B5, for which the binding result is listed as “binds”. As to B6, the binding result was “binds”.

A further assay shares this target. In words: affinity purification with mass spectrometry. The source holds these as a separate data set.
As for “succinate dehydrogenase complex, subunit A (from UniProt Q8K2B3 43-664) (enzyme)”, the binding entry is listed as “binds”. Same read-out and setting: as for “hydroxyacyl-CoA dehydrogenase trifunctional multienzyme complex subunit alpha (from UniProt Q8BMS1 37-763)”, the entry is “binds”.
